Experimental data reported in the supplement of paper PMC12067093, “Discovery and optimisation of a covalent ligand for TRIM25 and its application to targeted protein ubiquitination” (Chemical Science, 2025).
Some of the results follow.

Sequences of proteins named here, by UniProt entry; tags and fusion partners are left off. A change or cut given only in a name is not applied to a line headed by its entry.
UniProt Q6P4R8, whole entry: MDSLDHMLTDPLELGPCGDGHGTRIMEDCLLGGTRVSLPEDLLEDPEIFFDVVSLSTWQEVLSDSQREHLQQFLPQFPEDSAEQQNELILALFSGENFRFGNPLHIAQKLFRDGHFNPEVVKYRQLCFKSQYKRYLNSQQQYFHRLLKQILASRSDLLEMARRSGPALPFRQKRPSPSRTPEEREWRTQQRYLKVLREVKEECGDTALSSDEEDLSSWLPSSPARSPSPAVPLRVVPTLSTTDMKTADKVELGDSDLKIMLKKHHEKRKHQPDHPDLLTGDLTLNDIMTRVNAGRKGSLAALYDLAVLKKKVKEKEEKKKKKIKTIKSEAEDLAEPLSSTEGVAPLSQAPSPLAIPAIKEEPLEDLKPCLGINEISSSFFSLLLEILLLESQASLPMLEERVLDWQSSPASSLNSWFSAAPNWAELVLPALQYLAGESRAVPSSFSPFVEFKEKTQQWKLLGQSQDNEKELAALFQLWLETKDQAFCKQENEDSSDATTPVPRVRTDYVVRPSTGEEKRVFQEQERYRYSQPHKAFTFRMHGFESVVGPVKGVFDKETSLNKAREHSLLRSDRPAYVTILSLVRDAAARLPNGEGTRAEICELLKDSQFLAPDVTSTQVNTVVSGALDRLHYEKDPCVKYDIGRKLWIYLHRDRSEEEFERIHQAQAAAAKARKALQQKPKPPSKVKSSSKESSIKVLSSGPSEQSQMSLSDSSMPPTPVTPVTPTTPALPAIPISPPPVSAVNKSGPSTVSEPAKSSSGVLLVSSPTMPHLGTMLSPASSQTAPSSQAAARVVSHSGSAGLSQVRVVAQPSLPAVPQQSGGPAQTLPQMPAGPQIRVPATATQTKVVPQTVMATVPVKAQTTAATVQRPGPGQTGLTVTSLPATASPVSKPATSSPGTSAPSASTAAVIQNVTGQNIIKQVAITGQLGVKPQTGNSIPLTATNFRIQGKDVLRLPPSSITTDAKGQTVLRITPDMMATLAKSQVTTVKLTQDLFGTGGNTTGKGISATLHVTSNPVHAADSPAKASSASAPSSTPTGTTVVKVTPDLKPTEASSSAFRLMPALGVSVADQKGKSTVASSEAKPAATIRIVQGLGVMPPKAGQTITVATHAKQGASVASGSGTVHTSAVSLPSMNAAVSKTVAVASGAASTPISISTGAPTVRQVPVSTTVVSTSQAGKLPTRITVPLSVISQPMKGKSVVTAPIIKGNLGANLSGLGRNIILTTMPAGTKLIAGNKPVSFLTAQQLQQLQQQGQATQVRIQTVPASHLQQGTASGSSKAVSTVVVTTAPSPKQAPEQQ
UniProt Q12986: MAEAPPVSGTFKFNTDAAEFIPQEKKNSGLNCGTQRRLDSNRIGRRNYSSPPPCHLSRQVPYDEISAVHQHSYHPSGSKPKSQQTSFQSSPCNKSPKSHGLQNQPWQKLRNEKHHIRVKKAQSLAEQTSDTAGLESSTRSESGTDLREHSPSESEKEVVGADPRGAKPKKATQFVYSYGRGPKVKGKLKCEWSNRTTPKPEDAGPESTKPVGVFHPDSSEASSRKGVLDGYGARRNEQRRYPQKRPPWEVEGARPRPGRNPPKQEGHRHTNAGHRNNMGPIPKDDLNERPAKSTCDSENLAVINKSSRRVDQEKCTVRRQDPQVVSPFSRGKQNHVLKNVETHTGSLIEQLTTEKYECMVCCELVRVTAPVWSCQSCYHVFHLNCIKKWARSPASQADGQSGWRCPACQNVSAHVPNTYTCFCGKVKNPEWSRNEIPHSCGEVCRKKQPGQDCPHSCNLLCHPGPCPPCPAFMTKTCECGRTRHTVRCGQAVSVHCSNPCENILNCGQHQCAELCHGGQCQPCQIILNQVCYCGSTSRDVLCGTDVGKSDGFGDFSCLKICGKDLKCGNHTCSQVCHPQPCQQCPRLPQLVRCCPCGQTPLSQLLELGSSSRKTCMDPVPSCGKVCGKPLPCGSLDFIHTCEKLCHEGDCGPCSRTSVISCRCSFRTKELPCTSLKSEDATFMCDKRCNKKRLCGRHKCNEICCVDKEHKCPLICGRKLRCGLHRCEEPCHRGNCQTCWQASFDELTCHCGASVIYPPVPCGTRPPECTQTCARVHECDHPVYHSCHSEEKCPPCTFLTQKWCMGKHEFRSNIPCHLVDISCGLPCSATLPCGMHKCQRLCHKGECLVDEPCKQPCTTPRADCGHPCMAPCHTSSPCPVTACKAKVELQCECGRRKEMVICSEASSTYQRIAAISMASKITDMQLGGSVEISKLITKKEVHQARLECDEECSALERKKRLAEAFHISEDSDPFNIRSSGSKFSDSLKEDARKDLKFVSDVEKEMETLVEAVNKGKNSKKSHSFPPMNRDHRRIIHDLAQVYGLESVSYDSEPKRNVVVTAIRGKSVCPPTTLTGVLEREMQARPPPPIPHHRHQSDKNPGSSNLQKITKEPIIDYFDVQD
UniProt P28331, whole entry, looked up: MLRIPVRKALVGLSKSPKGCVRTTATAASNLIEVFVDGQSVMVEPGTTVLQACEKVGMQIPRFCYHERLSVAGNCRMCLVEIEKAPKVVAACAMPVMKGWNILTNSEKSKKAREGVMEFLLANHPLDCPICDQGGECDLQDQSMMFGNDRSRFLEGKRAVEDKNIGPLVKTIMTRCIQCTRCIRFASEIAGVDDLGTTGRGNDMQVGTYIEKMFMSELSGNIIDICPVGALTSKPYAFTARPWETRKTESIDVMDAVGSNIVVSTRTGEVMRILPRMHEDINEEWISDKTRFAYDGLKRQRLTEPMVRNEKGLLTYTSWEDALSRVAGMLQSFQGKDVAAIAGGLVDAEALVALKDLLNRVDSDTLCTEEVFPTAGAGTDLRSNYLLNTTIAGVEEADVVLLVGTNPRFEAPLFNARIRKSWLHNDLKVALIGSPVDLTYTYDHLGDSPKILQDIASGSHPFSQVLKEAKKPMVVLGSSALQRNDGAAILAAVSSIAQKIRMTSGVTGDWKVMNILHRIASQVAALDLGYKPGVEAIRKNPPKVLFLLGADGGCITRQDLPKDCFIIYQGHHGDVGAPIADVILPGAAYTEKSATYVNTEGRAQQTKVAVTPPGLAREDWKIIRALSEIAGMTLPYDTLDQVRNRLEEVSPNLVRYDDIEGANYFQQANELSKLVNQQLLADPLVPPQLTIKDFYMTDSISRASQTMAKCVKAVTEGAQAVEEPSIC
UniProt Q86X76: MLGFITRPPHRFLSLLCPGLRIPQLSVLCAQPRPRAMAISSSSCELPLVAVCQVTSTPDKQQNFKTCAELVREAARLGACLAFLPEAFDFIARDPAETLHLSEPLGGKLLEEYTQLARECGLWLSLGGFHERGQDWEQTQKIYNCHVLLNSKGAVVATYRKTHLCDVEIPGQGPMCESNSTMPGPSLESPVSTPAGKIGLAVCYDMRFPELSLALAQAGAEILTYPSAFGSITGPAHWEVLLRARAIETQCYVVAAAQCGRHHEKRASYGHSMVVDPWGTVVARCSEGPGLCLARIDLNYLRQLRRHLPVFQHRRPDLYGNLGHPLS
UniProt Q9HCD5: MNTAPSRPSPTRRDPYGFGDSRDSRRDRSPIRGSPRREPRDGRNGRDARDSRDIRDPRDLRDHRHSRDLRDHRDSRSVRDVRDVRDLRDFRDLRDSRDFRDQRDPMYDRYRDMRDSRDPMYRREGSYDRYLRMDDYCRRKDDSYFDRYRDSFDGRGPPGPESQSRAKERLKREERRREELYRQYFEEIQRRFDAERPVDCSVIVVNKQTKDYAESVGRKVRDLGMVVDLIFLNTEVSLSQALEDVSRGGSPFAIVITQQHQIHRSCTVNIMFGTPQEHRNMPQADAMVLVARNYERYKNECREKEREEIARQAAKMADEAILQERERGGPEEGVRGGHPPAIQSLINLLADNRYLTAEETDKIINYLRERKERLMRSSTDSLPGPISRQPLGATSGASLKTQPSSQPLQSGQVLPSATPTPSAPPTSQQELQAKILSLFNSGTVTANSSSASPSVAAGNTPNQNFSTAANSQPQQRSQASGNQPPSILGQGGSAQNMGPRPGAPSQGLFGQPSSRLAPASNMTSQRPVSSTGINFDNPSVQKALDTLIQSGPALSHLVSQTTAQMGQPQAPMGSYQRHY
UniProt Q9BYG3: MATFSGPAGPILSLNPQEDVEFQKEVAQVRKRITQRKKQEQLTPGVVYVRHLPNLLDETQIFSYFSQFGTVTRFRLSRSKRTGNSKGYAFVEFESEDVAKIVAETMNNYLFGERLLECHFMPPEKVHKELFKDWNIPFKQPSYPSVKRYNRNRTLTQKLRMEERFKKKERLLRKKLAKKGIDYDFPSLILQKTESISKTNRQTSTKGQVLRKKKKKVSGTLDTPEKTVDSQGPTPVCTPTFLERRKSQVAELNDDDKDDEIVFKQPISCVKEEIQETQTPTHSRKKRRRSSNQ
UniProt P55160: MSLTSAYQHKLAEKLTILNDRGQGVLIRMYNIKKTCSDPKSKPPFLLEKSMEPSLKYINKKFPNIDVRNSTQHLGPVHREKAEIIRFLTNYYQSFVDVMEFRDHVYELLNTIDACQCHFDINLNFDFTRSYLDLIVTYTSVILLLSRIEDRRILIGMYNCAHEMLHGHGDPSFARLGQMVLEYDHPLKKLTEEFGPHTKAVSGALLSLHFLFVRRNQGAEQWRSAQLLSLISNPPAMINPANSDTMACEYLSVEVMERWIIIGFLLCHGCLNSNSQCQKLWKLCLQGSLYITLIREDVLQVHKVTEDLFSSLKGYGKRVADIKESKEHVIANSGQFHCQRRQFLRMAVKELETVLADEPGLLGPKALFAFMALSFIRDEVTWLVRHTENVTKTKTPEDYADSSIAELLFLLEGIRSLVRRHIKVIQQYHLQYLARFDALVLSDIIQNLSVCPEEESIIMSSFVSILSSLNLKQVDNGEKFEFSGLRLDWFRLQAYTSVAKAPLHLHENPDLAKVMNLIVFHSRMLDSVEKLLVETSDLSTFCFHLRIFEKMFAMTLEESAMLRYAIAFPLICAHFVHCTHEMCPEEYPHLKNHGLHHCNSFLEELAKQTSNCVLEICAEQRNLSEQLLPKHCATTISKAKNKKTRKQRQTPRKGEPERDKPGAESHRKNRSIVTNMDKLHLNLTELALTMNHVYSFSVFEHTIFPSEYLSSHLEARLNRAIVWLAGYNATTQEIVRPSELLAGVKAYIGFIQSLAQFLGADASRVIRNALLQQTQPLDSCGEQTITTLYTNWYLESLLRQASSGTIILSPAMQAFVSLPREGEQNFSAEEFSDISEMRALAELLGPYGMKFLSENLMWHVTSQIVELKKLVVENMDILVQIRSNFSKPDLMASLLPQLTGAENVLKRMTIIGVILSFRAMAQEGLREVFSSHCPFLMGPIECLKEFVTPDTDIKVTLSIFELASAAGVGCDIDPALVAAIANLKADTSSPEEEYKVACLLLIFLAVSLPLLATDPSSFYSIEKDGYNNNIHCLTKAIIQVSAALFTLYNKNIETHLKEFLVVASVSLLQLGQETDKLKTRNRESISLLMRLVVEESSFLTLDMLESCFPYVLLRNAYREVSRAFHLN
UniProt Q9NX24: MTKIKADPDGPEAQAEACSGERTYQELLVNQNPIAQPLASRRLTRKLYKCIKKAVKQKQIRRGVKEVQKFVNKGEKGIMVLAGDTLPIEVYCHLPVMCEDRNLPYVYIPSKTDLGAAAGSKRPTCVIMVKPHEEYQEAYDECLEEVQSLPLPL
UniProt O00221: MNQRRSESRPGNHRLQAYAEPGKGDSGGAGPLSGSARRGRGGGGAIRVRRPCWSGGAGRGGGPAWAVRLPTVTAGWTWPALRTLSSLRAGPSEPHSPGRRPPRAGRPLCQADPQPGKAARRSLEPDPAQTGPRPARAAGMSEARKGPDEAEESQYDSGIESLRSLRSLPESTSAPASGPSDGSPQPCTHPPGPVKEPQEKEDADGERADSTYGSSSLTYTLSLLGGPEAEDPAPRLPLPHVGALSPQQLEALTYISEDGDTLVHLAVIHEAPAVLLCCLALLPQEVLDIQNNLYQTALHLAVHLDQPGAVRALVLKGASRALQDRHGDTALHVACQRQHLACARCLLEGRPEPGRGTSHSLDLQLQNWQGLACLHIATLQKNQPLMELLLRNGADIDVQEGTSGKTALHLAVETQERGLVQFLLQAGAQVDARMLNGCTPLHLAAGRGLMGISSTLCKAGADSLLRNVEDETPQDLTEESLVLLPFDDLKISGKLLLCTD

Compound: CC1Cc2ccccc2N1C(=O)C1CCCN(C1)C(=O)CCl (mixture of isomers) [TRIM25 ligand 11 (diastereomer mixture)]
Test: probe-labelled cysteine peptide fold change vs DMSO (competition) (log2 fold change); higher = less target engagement (more negative = stronger competition)
Conditions: THP-1, incubation time: 4 h
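Note: competitive chemoproteomic profiling in live THP-1 cells with an iodoacetamide desthiobiotin (IA-DTB) probe, comparing probe-labelled peptide intensities in compound-treated cells against DMSO-treated controls.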

## NFRKB_Q6P4R8_17_MDSLDHMLTDPLELGPCGDGHGTR (UniProt Q6P4R8)
10 µM
  probe-labelled cysteine peptide fold change: -0.196
50 µM
  probe-labelled cysteine peptide fold change: -1.37

## NELFCD_Q8IXH7_293_ACQALGAMLSK (UniProt Q8IXH7)
10 µM
  probe-labelled cysteine peptide fold change: -0.011
50 µM
  probe-labelled cysteine peptide fold change: -0.0645

## NFX1_Q12986_615_TCMDPVPSCGK (UniProt Q12986)
10 µM
  probe-labelled cysteine peptide fold change: -0.242
50 µM
  probe-labelled cysteine peptide fold change: -0.238

## NDUFS1_P28331_727_AVTEGAQAVEEPSIC (UniProt P28331)
10 µM
  probe-labelled cysteine peptide fold change: 0.0055
50 µM
  probe-labelled cysteine peptide fold change: -0.0365

## NEMF_O60524_663_VDESCVWR (UniProt O60524)
10 µM
  probe-labelled cysteine peptide fold change: 0.233
50 µM
  probe-labelled cysteine peptide fold change: 0.569

## NIT1_Q86X76_285+292_CSEGPGLCLAR (UniProt Q86X76)
10 µM
  probe-labelled cysteine peptide fold change: -0.0588
50 µM
  probe-labelled cysteine peptide fold change: -0.0713

## NFATC3_Q12968_90_NYEGTCEIPESK (UniProt Q12968)
10 µM
  probe-labelled cysteine peptide fold change: -0.289
50 µM
  probe-labelled cysteine peptide fold change: -0.185

## NCOA5_Q9HCD5_301_YKNECR (UniProt Q9HCD5)
10 µM
  probe-labelled cysteine peptide fold change: -0.174
50 µM
  probe-labelled cysteine peptide fold change: -0.0836

## NIFK_Q9BYG3_118_LLECHFMPPEK (UniProt Q9BYG3)
10 µM
  probe-labelled cysteine peptide fold change: -0.0703
50 µM
  probe-labelled cysteine peptide fold change: -0.00224

## NDUFB10_O96000_119_EGQNYQQNCIK (UniProt O96000)
10 µM
  probe-labelled cysteine peptide fold change: -0.0835
50 µM
  probe-labelled cysteine peptide fold change: -0.0614

## NCKAP1L_P55160_598_NHGLHHCNSFLEELAK (UniProt P55160)
10 µM
  probe-labelled cysteine peptide fold change: -0.0547
50 µM
  probe-labelled cysteine peptide fold change: -0.0916

## NHP2_Q9NX24_142_PHEEYQEAYDECLEEVQSLPLPL (UniProt Q9NX24)
10 µM
  probe-labelled cysteine peptide fold change: 0.181
50 µM
  probe-labelled cysteine peptide fold change: 0.075

## NFKBIE_O00221_342_QHLACAR (UniProt O00221)
10 µM
  probe-labelled cysteine peptide fold change: -0.0336
50 µM
  probe-labelled cysteine peptide fold change: 0.104

## NFX1_Q12986_852_GECLVDEPCK (UniProt Q12986)
10 µM
  probe-labelled cysteine peptide fold change: -0.0963
50 µM
  probe-labelled cysteine peptide fold change: 0.0315

## NIPBL_Q6KC79_304_GSRPPLILQSQSLPCSSPR (UniProt Q6KC79)
10 µM
  probe-labelled cysteine peptide fold change: 0.204
50 µM
  probe-labelled cysteine peptide fold change: 0.00224
